# Measurements reported in the supplement of paper PMC10849652.
# Sequences of proteins named here, by UniProt entry; tags and fusion partners are left off. A change or cut given only in a name is not applied to a line headed by its entry.
# UniProt Q8NHZ8, whole entry, looked up: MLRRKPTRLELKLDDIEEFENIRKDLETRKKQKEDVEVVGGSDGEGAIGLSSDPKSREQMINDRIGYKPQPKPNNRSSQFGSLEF
# UniProt Q9NPF0: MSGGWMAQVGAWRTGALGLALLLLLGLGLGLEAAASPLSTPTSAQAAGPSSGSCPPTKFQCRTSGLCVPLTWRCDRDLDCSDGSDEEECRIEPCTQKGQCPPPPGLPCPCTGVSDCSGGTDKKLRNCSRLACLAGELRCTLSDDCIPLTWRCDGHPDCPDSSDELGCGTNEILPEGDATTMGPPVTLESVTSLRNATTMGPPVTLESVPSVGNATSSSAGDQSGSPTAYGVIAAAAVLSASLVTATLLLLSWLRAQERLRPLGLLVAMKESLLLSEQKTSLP
# UniProt Q8N163, whole entry, looked up: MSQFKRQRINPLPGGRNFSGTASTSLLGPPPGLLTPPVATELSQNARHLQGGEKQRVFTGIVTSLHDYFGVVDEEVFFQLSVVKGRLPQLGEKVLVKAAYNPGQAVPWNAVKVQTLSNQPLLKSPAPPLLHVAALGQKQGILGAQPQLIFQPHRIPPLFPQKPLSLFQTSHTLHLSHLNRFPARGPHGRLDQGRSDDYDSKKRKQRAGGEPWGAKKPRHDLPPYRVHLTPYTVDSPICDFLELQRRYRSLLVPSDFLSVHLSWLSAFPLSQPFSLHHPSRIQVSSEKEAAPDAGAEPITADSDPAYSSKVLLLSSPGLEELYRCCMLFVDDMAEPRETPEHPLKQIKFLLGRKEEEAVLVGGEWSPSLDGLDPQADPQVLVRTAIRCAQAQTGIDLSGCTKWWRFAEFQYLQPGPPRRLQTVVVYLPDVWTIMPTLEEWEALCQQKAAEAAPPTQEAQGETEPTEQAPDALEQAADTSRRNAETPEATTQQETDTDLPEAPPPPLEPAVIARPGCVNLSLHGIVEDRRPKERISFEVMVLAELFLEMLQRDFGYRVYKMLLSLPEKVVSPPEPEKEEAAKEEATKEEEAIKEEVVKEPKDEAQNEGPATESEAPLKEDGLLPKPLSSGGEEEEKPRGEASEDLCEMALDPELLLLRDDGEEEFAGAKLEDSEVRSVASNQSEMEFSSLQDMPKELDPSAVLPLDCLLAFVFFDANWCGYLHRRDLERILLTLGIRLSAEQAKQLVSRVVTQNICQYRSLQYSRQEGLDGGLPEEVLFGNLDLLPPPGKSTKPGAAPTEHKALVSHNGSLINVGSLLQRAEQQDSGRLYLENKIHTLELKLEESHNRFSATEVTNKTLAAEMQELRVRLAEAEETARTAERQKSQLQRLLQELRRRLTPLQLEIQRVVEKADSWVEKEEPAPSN
# UniProt Q9BRT8: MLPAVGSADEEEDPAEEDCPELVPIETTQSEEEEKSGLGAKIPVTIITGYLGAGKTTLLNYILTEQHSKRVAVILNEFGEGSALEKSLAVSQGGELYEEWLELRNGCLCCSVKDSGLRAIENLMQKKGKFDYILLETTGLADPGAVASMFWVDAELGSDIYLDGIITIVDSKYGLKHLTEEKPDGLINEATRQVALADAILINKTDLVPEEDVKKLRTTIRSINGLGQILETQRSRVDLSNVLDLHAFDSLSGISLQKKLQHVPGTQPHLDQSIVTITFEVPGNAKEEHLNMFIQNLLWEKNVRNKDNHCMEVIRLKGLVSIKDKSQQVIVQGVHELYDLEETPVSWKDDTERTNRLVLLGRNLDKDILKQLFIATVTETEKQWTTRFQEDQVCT
# UniProt Q4G0I0: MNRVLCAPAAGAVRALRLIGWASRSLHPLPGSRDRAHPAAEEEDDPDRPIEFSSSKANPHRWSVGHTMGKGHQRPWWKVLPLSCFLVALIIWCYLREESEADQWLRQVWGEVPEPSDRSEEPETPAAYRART
# UniProt Q9ULG6: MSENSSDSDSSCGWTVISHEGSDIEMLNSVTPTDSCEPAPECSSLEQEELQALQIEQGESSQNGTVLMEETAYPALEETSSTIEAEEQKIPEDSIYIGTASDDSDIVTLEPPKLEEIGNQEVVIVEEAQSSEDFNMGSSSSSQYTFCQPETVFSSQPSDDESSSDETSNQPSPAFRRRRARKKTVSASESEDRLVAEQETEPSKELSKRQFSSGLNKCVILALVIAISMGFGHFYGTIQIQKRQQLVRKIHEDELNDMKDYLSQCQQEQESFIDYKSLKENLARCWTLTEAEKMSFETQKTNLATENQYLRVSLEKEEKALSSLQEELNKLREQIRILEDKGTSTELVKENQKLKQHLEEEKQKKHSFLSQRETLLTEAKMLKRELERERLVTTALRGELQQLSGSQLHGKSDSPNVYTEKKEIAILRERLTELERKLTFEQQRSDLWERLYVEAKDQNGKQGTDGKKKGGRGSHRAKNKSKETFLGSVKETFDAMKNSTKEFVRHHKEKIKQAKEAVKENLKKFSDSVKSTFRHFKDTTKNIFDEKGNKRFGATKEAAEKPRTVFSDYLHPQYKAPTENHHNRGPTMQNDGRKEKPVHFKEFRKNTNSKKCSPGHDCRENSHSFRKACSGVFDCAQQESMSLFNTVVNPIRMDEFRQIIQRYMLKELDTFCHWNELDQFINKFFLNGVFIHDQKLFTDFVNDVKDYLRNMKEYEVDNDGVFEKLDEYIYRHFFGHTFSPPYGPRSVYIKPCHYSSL
# UniProt P45973, whole entry, looked up: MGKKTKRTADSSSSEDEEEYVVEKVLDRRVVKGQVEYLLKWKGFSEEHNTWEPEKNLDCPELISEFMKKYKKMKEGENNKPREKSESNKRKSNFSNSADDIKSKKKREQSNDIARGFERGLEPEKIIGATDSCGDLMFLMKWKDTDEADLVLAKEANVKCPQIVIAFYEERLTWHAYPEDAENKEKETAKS
# UniProt Q567U6, whole entry, looked up: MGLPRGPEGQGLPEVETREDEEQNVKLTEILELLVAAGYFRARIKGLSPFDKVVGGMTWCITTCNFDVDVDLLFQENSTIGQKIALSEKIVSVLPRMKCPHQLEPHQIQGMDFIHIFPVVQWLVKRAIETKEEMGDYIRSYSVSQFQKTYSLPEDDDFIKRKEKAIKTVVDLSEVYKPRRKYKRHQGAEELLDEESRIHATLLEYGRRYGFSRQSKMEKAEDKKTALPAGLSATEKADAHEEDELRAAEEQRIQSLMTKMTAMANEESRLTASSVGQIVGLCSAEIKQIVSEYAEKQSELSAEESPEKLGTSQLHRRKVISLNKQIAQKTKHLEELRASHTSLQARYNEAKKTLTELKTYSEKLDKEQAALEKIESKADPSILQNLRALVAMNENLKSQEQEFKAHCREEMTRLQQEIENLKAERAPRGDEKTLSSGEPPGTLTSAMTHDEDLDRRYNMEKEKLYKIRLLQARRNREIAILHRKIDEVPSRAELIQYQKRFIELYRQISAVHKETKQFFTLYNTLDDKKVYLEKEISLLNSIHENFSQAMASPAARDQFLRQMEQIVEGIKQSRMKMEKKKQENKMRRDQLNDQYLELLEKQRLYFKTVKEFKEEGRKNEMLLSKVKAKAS
# UniProt Q96F63: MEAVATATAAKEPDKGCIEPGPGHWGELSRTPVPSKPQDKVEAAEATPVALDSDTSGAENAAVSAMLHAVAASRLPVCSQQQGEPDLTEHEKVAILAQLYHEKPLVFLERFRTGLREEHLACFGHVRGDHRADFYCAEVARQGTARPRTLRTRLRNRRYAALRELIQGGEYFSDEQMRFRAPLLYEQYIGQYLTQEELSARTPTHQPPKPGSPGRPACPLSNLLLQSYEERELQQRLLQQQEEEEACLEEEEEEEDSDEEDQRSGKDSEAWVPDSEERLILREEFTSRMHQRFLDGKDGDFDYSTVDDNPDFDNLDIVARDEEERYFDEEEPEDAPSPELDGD
# UniProt O60563, whole entry, looked up: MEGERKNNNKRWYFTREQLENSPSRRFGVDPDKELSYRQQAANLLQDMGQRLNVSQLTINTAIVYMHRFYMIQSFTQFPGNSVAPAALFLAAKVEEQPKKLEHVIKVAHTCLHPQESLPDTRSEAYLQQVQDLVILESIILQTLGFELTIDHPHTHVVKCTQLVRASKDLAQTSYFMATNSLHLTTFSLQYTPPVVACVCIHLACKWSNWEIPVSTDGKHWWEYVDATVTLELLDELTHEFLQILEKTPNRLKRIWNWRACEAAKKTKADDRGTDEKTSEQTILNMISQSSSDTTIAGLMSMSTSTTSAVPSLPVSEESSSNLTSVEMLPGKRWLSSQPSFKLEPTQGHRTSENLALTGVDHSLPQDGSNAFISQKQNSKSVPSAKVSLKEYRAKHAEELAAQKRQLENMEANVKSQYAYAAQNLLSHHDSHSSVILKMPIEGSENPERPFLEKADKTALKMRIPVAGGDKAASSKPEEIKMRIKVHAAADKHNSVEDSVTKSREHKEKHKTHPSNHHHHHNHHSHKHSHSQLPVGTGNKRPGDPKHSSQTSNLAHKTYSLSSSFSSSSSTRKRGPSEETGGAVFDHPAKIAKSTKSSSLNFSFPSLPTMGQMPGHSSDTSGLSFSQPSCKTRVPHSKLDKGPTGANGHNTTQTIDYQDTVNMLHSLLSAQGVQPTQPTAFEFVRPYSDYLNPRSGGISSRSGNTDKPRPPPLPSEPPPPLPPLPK
# UniProt P49589: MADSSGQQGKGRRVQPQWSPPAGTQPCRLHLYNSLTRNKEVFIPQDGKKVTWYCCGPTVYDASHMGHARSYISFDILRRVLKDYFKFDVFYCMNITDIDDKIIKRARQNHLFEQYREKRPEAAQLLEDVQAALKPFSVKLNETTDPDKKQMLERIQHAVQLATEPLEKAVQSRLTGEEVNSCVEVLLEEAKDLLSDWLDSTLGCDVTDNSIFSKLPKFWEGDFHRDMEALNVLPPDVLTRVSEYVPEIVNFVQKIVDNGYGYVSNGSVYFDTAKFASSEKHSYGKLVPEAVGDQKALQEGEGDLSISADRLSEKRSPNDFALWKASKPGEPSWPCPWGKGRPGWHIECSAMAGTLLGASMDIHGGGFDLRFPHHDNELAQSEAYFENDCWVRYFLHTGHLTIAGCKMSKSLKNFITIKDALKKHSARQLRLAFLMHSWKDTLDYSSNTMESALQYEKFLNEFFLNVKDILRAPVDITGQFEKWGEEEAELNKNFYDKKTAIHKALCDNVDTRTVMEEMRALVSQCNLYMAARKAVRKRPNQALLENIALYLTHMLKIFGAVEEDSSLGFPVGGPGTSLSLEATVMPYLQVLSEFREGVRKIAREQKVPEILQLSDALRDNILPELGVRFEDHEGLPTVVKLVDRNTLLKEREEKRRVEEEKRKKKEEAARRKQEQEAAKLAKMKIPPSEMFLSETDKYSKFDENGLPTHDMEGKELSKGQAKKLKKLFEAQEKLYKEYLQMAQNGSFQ
# UniProt Q8N4J0: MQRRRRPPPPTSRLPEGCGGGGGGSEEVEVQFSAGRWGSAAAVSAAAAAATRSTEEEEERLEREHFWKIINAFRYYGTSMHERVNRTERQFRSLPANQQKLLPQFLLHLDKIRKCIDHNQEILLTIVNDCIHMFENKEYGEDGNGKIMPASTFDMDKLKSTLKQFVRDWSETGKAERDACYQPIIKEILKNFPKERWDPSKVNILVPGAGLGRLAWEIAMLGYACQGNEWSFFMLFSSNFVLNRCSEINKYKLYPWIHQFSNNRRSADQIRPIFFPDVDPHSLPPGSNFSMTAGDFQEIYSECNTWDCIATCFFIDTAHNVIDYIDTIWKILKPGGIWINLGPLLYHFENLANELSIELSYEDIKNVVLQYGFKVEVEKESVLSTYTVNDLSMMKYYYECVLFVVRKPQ
# UniProt Q9BV29: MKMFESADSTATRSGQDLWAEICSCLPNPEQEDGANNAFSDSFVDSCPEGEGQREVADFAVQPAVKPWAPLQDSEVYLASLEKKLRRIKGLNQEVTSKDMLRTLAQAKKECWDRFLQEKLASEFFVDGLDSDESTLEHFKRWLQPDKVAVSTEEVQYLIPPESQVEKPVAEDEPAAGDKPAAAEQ
# UniProt P20810: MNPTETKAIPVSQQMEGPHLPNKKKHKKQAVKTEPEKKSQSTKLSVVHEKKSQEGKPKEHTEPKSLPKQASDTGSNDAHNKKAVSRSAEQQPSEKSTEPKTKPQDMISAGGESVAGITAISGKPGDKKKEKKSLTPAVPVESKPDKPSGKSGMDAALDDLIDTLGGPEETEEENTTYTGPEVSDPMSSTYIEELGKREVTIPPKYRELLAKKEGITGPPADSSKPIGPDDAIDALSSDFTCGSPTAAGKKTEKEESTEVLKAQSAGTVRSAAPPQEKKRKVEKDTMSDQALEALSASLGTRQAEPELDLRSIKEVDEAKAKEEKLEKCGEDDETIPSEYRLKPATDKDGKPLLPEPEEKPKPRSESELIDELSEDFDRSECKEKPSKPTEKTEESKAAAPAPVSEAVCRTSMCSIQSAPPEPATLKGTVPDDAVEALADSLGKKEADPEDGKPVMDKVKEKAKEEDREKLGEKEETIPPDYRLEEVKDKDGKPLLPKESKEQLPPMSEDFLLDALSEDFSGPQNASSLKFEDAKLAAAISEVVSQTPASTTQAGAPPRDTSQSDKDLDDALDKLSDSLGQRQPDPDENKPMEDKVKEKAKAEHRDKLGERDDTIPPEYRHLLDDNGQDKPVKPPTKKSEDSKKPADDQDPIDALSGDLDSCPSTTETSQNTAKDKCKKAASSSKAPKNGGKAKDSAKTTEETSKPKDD
# The list shows a part of the results.
# Experiments:
# Experiment in all cases: log2 fold change, soluble protein after heating vs DMSO (PISA); higher = thermal stabilisation; K562 cells, 10 uM, 30 min; active = over 0.2 and 3.5 SD of the protein, either way, in both replicates (recomputed)
# [1] = compound: CC1=C(C=C(C=C1)NC(=O)C2=CC(=CC=C2)C(C)(C)C#N)NC3=CC4=C(C=C3)N=CN(C4=O)C
# Outline: (§1)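 Values are thermal stability changes relative to control samples and are taken from duplicates. They are stated as log2 fold changes. Before quantification by TMTpro 16plex LC-MS/MS with equalised channel sums, K562 cells at 2×10^6 cells/mL were treated with 10 μM compound for 30 min, heated in aliquots for 3 min across 48°C-58°C, pooled, extracted in PBS with 0.5% NP-40 at 4°C, and centrifuged at 21,000xg for 90 min to give the soluble supernatant.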
# [2] = compound: CC1=C(C=C(C=C1)NC(=O)C2=CC(=CC=C2)N(C)C)NC(=O)C3=CC=C(C=C3)O
# Outline: as §1
# [3] = compound: CC1=CC=C(C=C1)SC2=C3C=C(SC3=CN=C2)C(=O)N
# Outline: as §1
# [4] = compound: CC1=NC(=CC=C1)C2=C(N=C(N2)C(C)(C)C)C3=CC4=NC=CN=C4C=C3
# Outline: as §1
# [5] = compound: CCCCN(Cc1ccc(C(=O)NO)cc1)C(=O)Nc1ccccc1 [Nexturastat A]
# Outline: as §1
# [6] = compound: CCCS(=O)(=O)Nc1ccc(F)c(C(=O)c2c[nH]c3ncc(-c4ccc(Cl)cc4)cc23)c1F [vemurafenib]
# Outline: as §1
# [7] = compound: CCCS(=O)(=O)Nc1ccc(F)c(C(=O)c2c[nH]c3ncc(Cl)cc23)c1F
# Outline: as §1
# [8] = compound: CCCc1cc(C)[nH]c(=O)c1CNC(=O)c1cc(-c2ccnc(N3CCN(C)CC3)c2)cc2c1cnn2C(C)C
# Outline: as §1
# [9] = compound: CCN(CC)Cc1ccc2cc(COC(=O)Nc3ccc(C(=O)NO)cc3)ccc2c1 [givinostat]
# Outline: as §1
# [10] = compound: CCN(CCCOc1ccc2c(Nc3cc(CC(=O)Nc4cccc(F)c4)[nH]n3)ncnc2c1)CCOP(=O)(O)O [barasertib]
# Outline: as §1
Target,log2 fold change [1],log2 fold change [2],log2 fold change [3],log2 fold change [4],log2 fold change [5],log2 fold change [6],log2 fold change [7],log2 fold change [8],log2 fold change [9],log2 fold change [10]
CDC26 (UniProt Q8NHZ8),inactive: -0.026,inactive: 0.029,inactive: -0.025,inactive: 0.021,inactive: 0.067,active: 0.534,inactive: -0.048,inactive: 0.056,inactive: 0.056,inactive: 0.007
CD320 (UniProt Q9NPF0),inactive: 0.037,inactive: 0.025,inactive: 0.003,inactive: 0.036,inactive: -0.161,inactive: -0.031,inactive: -0.017,inactive: -0.03,inactive: -0.045,inactive: 0.012
CCDC51 (UniProt Q96ER9),inactive: 0.122,inactive: -0.007,inactive: 0.08,inactive: 0.061,inactive: 0.02,inactive: 0.052,inactive: 0.106,inactive: -0.03,inactive: 0,inactive: 0.025
CD58 (UniProt P19256),inactive: -0.015,inactive: 0,inactive: -0.014,inactive: -0.021,inactive: 0.014,inactive: -0.047,inactive: -0.023,inactive: 0.011,inactive: -0.031,inactive: -0.045
CCAR2 isoform 2 (UniProt Q8N163),inactive: 0.032,inactive: -0.048,inactive: -0.017,inactive: 0.001,inactive: 0,inactive: 0.042,inactive: 0.05,inactive: 0.28,inactive: 0.144,inactive: 0.026
CCDC86 (UniProt Q9H6F5),inactive: 0.021,inactive: 0.005,inactive: -0.079,inactive: -0.205,inactive: 0.078,inactive: -0.118,inactive: -0.082,inactive: 0.126,inactive: -0.024,inactive: -0.16
CBWD1 (UniProt Q9BRT8),inactive: 0.011,inactive: -0.064,inactive: -0.066,inactive: -0.05,inactive: 0.097,inactive: 0.053,inactive: 0.139,inactive: 0.058,inactive: 0.013,inactive: -0.037
CC2D1A (UniProt Q6P1N0),inactive: 0.008,inactive: -0.005,inactive: 0.009,inactive: 0.061,inactive: 0.032,inactive: 0.071,inactive: 0.032,inactive: 0.11,inactive: 0.057,inactive: 0.025
CCSMST1 (UniProt Q4G0I0),inactive: 0.107,inactive: -0.062,inactive: 0.059,inactive: 0.008,inactive: 0.043,inactive: 0.073,inactive: 0.014,inactive: -0.039,inactive: -0.014,inactive: 0.021
CDC23 (UniProt Q9UJX2),inactive: -0.069,inactive: -0.009,inactive: 0.014,inactive: 0.006,inactive: 0.032,inactive: -0.015,inactive: 0.004,inactive: 0.012,inactive: -0.003,inactive: 0.013
CCPG1 isoform 5 (UniProt Q9ULG6),inactive: -0.034,inactive: -0.032,inactive: -0.054,inactive: -0.063,inactive: 0.201,inactive: -0.059,inactive: -0.069,inactive: -0.004,inactive: 0.014,inactive: -0.008
CBX5 (UniProt P45973),inactive: 0.051,inactive: 0.029,inactive: 0.073,inactive: 0.113,inactive: 0.027,inactive: 0.045,inactive: 0.085,inactive: -0.051,inactive: 0.043,inactive: -0.05
CASP8 isoform 9 (UniProt Q14790),inactive: -0.054,inactive: -0.092,inactive: 0.017,inactive: -0.049,inactive: 0.064,inactive: 0,inactive: 0.177,inactive: 0.114,inactive: 0.115,inactive: 0
CCDC93 (UniProt Q567U6),inactive: -0.024,inactive: -0.01,inactive: -0.015,inactive: 0.002,inactive: 0.151,inactive: 0.026,inactive: -0.047,inactive: -0.018,inactive: 0.042,inactive: 0.107
CCDC97 (UniProt Q96F63),inactive: -0.242,inactive: 0.114,inactive: 0.02,inactive: -0.056,inactive: 0.123,inactive: 0.087,inactive: 0.149,inactive: -0.033,inactive: -0.006,inactive: -0.061
CBR1 (UniProt P16152),inactive: 0.006,inactive: -0.023,inactive: 0.005,inactive: 0.038,inactive: -0.032,inactive: -0.001,inactive: 0.074,inactive: 0.051,inactive: 0.005,inactive: 0.025
CASC3 (UniProt O15234),inactive: 0.043,inactive: -0.003,inactive: 0.009,inactive: -0.027,inactive: -0.004,inactive: -0.156,inactive: -0.061,inactive: -0.065,inactive: -0.045,inactive: 0.043
CDC20 (UniProt Q12834),inactive: 0.055,inactive: -0.001,inactive: 0.044,inactive: -0.139,inactive: -0.055,inactive: 0.153,inactive: 0.108,inactive: 0.025,inactive: 0.031,inactive: -0.088
CCNT1 (UniProt O60563),inactive: -0.033,inactive: -0.018,inactive: -0.02,inactive: 0.005,inactive: 0.218,inactive: 0.027,inactive: 0.007,inactive: 0.023,inactive: 0.022,inactive: 0.022
CD2AP (UniProt Q9Y5K6),inactive: -0.016,inactive: 0,inactive: 0.012,inactive: 0.03,inactive: -0.061,inactive: 0,inactive: 0.022,inactive: -0.01,inactive: -0.012,inactive: 0.007
CBFA2T3 (UniProt O75081),inactive: -0.039,inactive: 0.046,inactive: -0.059,inactive: -0.142,inactive: -0.025,inactive: -0.214,inactive: -0.125,inactive: 0.04,inactive: -0.026,inactive: 0.095
CDC37L1 (UniProt Q7L3B6),inactive: 0.035,inactive: 0.001,inactive: -0.054,inactive: -0.021,inactive: -0.028,inactive: -0.008,inactive: 0.019,inactive: 0.063,inactive: 0.044,inactive: 0.063
CARS isoform 3 (UniProt P49589),inactive: -0.001,inactive: 0.01,inactive: 0.006,inactive: 0.014,inactive: -0.036,inactive: -0.016,inactive: 0.025,inactive: -0.006,inactive: -0.017,inactive: 0.006
CASC4 (UniProt Q6P4E1),inactive: 0.002,inactive: -0.014,inactive: -0.005,inactive: -0.008,inactive: -0.088,inactive: -0.02,inactive: -0.086,inactive: -0.064,inactive: 0.054,inactive: 0.019
CARNMT1 (UniProt Q8N4J0),inactive: 0.031,inactive: -0.033,inactive: 0.022,inactive: -0.002,inactive: -0.117,inactive: 0.036,inactive: 0.094,inactive: 0.064,inactive: -0.033,inactive: 0.027
CCDC32 isoform 2 (UniProt Q9BV29),inactive: 0.004,inactive: -0.008,inactive: 0.022,inactive: 0.053,inactive: 0.069,inactive: -0.012,inactive: -0.017,inactive: -0.232,inactive: -0.004,inactive: -0.018
CAST isoform 6 (UniProt P20810),inactive: -0.045,inactive: 0.002,inactive: -0.008,inactive: 0.007,inactive: -0.071,inactive: -0.023,inactive: -0.031,inactive: 0.181,inactive: -0.021,inactive: 0.003
CD53 (UniProt P19397),inactive: -0.062,inactive: -0.099,inactive: -0.13,inactive: -0.095,inactive: -0.006,inactive: -0.035,inactive: -0.182,inactive: -0.092,inactive: -0.006,inactive: -0.102
CCT4 (UniProt P50991),inactive: 0.056,inactive: 0.007,inactive: 0.071,inactive: 0.015,inactive: -0.138,inactive: 0.016,inactive: 0.128,inactive: 0.031,inactive: -0.049,inactive: -0.022

# 2 entries from above in another layout:
Target	log2 fold change [1]	log2 fold change [2]	log2 fold change [3]	log2 fold change [4]	log2 fold change [5]	log2 fold change [6]	log2 fold change [7]	log2 fold change [8]	log2 fold change [9]	log2 fold change [10]
CBX5 (UniProt P45973)	inactive: 0.051	inactive: 0.029	inactive: 0.073	inactive: 0.113	inactive: 0.027	inactive: 0.045	inactive: 0.085	inactive: -0.051	inactive: 0.043	inactive: -0.05
CASP8 isoform 9 (UniProt Q14790)	inactive: -0.054	inactive: -0.092	inactive: 0.017	inactive: -0.049	inactive: 0.064	inactive: 0	inactive: 0.177	inactive: 0.114	inactive: 0.115	inactive: 0
